These results are taken from the supplement of paper PMC7666118.

Sequences of proteins named here, by UniProt entry; tags and fusion partners are left off. A change or cut given only in a name is not applied to a line headed by its entry.
UniProt Q9Y5X1: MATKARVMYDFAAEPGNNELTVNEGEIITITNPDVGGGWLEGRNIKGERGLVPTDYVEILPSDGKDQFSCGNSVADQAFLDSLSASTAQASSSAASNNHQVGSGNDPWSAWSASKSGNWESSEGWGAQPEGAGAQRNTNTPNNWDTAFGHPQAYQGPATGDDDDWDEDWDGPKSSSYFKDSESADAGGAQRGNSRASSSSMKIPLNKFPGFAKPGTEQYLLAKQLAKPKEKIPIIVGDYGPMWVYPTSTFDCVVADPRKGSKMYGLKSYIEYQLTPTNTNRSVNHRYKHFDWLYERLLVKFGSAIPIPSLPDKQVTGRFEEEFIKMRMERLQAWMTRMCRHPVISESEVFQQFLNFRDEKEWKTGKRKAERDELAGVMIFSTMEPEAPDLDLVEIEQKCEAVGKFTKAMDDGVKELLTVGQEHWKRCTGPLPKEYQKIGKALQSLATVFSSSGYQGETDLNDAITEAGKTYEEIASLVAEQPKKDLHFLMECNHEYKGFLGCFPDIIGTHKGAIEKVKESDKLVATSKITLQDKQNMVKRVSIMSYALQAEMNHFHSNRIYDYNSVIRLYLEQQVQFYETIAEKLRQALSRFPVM
UniProt Q92673: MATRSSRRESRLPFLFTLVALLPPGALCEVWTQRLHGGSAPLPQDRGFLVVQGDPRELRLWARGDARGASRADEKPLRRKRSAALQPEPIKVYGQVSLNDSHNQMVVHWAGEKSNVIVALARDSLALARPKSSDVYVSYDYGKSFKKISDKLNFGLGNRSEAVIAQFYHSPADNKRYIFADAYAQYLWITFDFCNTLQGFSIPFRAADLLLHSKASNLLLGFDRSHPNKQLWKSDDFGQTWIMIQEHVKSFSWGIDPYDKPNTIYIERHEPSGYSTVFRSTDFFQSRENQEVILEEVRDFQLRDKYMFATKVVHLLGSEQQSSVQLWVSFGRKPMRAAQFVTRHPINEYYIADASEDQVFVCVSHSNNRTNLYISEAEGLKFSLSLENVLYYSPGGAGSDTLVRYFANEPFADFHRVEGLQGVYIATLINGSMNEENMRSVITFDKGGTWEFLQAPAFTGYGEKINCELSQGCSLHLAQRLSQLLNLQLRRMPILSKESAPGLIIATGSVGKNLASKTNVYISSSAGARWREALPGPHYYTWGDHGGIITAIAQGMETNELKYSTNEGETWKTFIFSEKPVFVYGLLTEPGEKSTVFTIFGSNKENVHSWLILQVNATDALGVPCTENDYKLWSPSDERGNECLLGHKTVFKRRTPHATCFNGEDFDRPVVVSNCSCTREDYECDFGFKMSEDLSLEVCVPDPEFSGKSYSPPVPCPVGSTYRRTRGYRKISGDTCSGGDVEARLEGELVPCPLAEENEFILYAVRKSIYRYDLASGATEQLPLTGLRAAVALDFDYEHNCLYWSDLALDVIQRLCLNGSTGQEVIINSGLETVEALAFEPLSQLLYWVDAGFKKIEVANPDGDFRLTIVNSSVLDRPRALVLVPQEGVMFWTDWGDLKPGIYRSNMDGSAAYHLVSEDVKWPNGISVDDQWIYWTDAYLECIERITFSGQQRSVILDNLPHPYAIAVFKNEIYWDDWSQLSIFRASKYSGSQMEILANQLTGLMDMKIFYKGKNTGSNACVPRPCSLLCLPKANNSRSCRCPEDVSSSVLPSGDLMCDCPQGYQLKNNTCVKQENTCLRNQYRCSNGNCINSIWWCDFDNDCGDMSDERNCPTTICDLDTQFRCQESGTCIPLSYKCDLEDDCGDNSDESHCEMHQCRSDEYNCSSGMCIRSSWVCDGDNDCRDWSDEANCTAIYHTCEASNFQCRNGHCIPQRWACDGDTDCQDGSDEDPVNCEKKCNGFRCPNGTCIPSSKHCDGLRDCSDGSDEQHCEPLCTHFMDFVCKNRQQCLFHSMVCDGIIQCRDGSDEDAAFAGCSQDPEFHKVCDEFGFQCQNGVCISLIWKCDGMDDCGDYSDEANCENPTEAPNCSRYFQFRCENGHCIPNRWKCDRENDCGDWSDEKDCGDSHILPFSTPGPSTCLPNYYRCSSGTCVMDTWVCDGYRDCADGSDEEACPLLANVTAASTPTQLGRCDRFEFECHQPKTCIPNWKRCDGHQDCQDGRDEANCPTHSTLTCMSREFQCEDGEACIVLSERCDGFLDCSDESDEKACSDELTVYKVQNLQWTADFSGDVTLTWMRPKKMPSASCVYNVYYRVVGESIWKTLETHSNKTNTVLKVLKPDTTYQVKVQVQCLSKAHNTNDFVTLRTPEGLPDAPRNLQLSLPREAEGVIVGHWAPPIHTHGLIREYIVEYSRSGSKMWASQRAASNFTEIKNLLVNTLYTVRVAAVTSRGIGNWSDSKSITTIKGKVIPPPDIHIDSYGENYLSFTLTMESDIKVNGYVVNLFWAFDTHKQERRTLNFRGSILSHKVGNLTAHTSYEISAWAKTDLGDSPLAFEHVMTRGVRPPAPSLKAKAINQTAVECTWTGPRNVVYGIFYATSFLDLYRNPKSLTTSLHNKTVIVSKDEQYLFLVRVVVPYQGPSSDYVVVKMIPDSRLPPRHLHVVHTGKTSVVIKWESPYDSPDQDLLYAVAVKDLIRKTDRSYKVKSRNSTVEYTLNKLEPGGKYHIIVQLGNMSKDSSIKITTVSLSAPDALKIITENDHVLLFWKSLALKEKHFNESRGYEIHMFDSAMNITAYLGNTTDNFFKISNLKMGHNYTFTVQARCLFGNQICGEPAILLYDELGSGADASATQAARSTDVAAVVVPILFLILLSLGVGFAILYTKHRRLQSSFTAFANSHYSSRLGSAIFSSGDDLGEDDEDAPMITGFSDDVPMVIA
UniProt Q13485: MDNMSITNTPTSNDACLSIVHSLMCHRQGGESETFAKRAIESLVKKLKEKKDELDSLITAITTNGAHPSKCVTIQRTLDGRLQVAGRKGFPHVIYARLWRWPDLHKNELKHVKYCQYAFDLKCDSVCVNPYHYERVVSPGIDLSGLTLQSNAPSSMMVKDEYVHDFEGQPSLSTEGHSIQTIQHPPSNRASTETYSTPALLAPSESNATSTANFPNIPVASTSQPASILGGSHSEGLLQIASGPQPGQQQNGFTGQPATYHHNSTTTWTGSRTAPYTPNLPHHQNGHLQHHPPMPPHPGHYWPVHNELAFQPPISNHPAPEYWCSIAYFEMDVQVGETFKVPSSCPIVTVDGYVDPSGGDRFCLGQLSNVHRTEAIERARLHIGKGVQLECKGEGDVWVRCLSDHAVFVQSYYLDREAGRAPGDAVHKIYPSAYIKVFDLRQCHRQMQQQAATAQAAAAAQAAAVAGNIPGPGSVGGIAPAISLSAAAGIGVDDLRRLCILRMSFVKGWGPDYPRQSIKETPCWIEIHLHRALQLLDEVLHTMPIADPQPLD
UniProt Q96R06: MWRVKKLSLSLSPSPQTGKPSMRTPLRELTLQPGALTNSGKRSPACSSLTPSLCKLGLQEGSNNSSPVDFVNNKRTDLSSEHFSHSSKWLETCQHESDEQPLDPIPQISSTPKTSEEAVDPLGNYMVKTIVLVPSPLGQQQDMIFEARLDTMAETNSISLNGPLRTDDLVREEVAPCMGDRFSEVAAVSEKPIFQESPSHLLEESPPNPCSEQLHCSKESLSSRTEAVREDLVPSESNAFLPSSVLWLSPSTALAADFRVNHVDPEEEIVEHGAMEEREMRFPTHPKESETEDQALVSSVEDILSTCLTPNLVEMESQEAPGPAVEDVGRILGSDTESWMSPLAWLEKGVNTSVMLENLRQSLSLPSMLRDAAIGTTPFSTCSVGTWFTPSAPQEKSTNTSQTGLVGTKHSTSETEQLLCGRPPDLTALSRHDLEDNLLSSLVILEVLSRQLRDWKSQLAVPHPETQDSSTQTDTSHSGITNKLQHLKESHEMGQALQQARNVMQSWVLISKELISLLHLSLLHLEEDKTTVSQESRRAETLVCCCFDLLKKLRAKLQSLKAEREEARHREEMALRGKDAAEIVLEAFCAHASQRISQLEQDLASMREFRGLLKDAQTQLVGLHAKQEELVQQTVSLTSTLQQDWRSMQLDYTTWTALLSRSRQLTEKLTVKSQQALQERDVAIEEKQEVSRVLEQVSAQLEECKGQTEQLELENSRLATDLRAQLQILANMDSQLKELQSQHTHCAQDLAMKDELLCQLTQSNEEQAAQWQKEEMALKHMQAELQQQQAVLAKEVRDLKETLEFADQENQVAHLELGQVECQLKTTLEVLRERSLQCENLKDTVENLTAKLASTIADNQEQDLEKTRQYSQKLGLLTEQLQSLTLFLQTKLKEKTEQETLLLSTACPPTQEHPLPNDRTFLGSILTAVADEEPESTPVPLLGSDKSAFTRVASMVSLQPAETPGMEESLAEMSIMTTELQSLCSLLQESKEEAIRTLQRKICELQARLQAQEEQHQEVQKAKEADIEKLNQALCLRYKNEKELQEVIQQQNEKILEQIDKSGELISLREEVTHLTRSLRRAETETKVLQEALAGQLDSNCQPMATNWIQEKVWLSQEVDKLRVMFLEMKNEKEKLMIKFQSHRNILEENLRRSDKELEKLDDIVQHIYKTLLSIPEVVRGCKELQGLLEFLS
UniProt Q9H2G2: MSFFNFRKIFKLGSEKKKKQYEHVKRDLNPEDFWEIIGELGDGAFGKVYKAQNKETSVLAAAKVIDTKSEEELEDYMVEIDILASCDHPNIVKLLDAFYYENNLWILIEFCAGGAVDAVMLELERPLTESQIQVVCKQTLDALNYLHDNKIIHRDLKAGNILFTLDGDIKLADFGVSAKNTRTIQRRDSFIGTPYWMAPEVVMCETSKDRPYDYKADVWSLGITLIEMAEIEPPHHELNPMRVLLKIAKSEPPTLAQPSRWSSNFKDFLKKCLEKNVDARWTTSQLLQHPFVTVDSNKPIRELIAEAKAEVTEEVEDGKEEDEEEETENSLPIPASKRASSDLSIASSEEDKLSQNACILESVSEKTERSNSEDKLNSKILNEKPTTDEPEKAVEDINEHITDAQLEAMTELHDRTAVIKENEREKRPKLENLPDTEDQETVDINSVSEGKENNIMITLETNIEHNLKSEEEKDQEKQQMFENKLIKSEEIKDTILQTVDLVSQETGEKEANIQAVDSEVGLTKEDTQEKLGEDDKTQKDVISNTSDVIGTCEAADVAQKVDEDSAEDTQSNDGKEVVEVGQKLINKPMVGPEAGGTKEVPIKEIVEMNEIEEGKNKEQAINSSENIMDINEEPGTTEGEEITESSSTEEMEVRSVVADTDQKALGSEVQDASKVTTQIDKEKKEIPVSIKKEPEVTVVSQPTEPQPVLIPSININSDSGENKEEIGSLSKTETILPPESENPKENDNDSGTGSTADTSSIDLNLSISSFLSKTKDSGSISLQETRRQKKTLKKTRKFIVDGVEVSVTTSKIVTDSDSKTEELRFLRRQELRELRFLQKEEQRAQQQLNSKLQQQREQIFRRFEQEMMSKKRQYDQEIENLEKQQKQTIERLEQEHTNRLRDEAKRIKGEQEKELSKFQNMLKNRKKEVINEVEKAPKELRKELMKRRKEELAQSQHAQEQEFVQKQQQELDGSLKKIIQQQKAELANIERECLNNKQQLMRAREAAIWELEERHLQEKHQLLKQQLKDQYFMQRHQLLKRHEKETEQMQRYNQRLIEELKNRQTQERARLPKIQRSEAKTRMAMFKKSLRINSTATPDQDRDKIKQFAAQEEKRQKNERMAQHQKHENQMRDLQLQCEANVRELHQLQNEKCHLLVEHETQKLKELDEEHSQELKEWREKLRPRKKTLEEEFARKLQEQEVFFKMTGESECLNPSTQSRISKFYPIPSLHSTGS
UniProt Q9Y2D8: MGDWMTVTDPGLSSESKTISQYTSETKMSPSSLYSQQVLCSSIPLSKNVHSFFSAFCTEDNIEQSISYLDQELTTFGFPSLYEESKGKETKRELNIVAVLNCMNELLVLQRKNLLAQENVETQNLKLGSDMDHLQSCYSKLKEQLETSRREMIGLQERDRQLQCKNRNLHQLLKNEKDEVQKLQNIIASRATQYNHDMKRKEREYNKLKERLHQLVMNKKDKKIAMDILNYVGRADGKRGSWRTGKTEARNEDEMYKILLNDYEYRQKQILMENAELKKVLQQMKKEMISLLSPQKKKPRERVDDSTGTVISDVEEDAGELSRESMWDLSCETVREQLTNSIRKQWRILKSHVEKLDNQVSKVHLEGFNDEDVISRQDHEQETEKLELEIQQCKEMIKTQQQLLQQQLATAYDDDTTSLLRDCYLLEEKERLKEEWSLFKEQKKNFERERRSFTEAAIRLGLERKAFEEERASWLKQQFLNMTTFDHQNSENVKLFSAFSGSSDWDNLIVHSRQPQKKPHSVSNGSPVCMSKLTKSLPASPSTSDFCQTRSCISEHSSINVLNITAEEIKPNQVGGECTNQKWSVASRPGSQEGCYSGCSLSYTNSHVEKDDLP

This is one part of the list.

Compound in the assay: COc1ccc(Cn2ccc3ccc(C(=O)NO)cc32)cc1
In words: dose-dependent thermal stabilisation call (2D-TPP, DLPTP, 10% FDR) (binary (1 = stabilised)); higher = stabilised by the compound. Particulars: system: HL-60 intact cells; concentration range 0.04-10 µM.
For SNX5 (UniProt Q9Y5X3), the “dose-dependent thermal stabilisation call” value is inactive: 0.
Take SUPT6H (UniProt Q7KZ85): the “dose-dependent thermal stabilisation call” value was inactive: 0.
Take SNX9 (UniProt Q9Y5X1): the “dose-dependent thermal stabilisation call” value is inactive: 0.
On to STX18 (UniProt Q9P2W9), for which the “dose-dependent thermal stabilisation call” value is inactive: 0.
As to SORL1 (UniProt Q92673), the “dose-dependent thermal stabilisation call” value is inactive: 0.
Then SMARCC1 (UniProt Q92922), with inactive: 0; and SMAD4 (UniProt Q13485), with inactive: 0.
The result for SPI1 (UniProt P17947) reads inactive: 0; that for SPAG5 (UniProt Q96R06), inactive: 0.
Take SLK (UniProt Q9H2G2): the “dose-dependent thermal stabilisation call” value was inactive: 0.
Consider SSX2IP (UniProt Q9Y2D8), for which the “dose-dependent thermal stabilisation call” value is inactive: 0.
